Experimental findings from article PMC6397271 (Scientific Reports, 2019) are described below.

A short description of the series: general procedure: Fmoc solid-phase peptide synthesis; Rink-Amide TentaGel S RAM resin (0.25 mmol/g); TBTU/HOBt/NMM. Conditions: conjugation step.
“AGYLLGKINLKALAALAKKIL-Ala(Tra(1,4)-PEG4-C(O)-Van)-amide” gave a conjugation yield of 76%.

“AGYLLGK^7(C(O)-Tra(1,4)-PEG4-C(O)-Van)INLKALAALAKKIL-amide” had a conjugation yield of 58%. As to “Fl-AGYLLGK^7(C(O)-Tra(1,4)-PEG4-C(O)-Van)INLKALAALAKKIL-amide”, the conjugation yield amounted to 24%. The substance “Van-C(O)-PEG4-Tra(1,4)-C(O)-AGYLLGKINLKALAALAKKIL-amide” came in with a conjugation yield of 85%.

The substance “Van-NH-PEG3-Tra(1,4)-C(O)-AGYLLGKINLKALAALAKKIL-amide” had a conjugation yield of 47%.
